Reference: PubChem BioAssay AID1671190 (National Center for Advancing Translational Sciences (NCATS), 2021)
The whole screen tested about 580,000 compounds, of which about 6,100 (1.1%) were called active. The shares of active, inactive and inconclusive entries below differ from those in the screen. Calls follow the shape of the dose curve; as a rule, active = well fitted inhibition curve with a large enough effect; inconclusive = small, poorly fitted or top-dose-only effect, or another doubt; inactive = no such curve, though single readings can be large or run the other way. Where the call is inconclusive, the potency comes from a doubtful curve fit.

Amino acid sequences for entries named in this document (tags omitted). A change or cut given only in a name is not applied to a line headed by its entry.
UniProt P18054: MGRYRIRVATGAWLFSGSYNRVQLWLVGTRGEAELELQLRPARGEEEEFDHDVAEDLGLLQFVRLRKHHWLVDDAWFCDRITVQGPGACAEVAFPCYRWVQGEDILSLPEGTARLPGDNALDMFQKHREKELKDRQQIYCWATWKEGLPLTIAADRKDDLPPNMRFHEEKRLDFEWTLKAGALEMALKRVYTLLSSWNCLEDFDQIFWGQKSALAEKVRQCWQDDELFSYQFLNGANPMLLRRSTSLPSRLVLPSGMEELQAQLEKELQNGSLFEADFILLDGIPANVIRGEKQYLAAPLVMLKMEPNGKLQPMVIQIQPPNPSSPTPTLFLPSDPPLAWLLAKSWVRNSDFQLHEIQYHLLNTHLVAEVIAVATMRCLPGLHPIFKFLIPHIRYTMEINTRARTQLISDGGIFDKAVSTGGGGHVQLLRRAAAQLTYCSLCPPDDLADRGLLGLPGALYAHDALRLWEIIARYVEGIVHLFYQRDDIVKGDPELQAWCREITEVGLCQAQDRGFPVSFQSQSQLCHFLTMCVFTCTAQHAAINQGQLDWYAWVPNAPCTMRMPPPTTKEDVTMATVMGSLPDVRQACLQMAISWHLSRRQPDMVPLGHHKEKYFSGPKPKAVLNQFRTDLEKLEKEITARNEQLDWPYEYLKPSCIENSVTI

What follows are molecules tested against Polyunsaturated fatty acid lipoxygenase ALOX12 (Homo sapiens) (UniProt P18054) (assay: Primary qHTS assay for inhibitors of human arachidonate 12S-lipoxygenase (ALOX12): Round 2). Conditions: purified 12hLO, xylenol orange hydroperoxide absorbance; activity change, negative = inhibition: at 108 µM (top of the series) unless noted.
Procedure, shortened: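 Purified human 12hLO at 150 nM in 25 mM Hepes, 0.01% Triton X-100, pH 7.0, preincubated 15 min at room temperature with compound. Reaction started with 40 uM arachidonic acid, 30 min at room temperature. Hydroperoxide measured by Fe-xylenol orange, 573/405 nm absorbance ratio.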
% is scaled to controls: 0 for no effect and ±100 for the full control effect; potency is read from the fitted curve at half-maximal effect.

| SMILES | Potency | activity change, negative = inhibition |
| --- | --- | --- |
| O=C1CCN(S(=O)(=O)c2ccccc2)CCCN(S(=O)(=O)c2ccc3c(c2)CCC3)CCN1 | inconclusive: 20 µM [inhibitor, full curve] | – |
| O=C(CSC(=S)N1CCCC1)c1cc(Br)cc(Br)c1O | active: 14.1 µM | – |
| CCc1n[nH]c(=S)n1/N=C/c1cc(Br)c(O)c(OC)c1 | inconclusive: 39.8 µM [inhibitor, partial curve] | – |
| CCc1ccc(-n2ccc3nc(N4CCc5ccccc5C4)ncc3c2=O)cc1 | active: 39.8 µM | – |
| CCCCCCSc1nnc2c(n1)OC(C)Nc1ccc(Br)cc1-2 (stereo unspecified) | inconclusive: 56.2 µM [inhibitor, partial curve, poor fit] | – |
| O=C(NC1CCCCC1)C1=Cc2cc(Cl)ccc2OC=C1 | inactive | – |
| COc1cc(C(=O)ONC(=O)c2ccc(OC(F)F)cc2)cc(OC)c1OC | inconclusive: 112 µM [inhibitor, partial curve, poor fit] | – |
| Cc1c(Cl)cccc1NC(=S)NCCc1ccc(F)cc1 | inconclusive: 44.7 µM [inhibitor, partial curve, poor fit] | – |
| Cc1ncccc1OC1(C(=O)NCc2n[nH]c3c2CCC3)CCNCC1 | inactive | – |
| Cc1ccccc1Nc1nc(NCc2ccco2)nc2c1cnn2-c1ccccc1 | inconclusive: 44.7 µM [inhibitor, partial curve, poor fit] | – |
| C=CCNC(=O)c1c(N)n(-c2cccc(S(N)(=O)=O)c2)c2nc3ccccc3nc12 | inconclusive: 3.98 µM [inhibitor, full curve, poor fit] | – |
| Cc1cccc(-n2nnnc2C2(Nc3ccccc3C)CCCC2)c1 | inconclusive: 112 µM [inhibitor, single point] | – |
| CCC(CC)C(=O)N1CCC2(CC1)C(=O)N(CC)c1ccccc12 | inactive | – |
| Cc1cc(C)cc(OCC(O)CN2CCN(Cc3ccc4c(c3)OCO4)CC2)c1 (stereo unspecified) | inconclusive: 39.8 µM [inhibitor, partial curve] | – |
| Cc1c(C(=O)N2CCN(c3ccccn3)CC2)sc2ncnc(N3CCN(c4ccccc4)CC3)c12 | inconclusive: 89.1 µM [inhibitor, partial curve, poor fit] | – |
| CCCn1ccc2sc(C)c(C(=O)NCc3ccc(F)cc3)c2c1=O | inactive | – |
| Cn1ncc2c(-c3ccc(Cl)cc3Cl)cc(C(=O)N3CCN(c4ncccn4)CC3)nc21 | – | inactive: 0.948% [at 6.33 µM] |
| Cc1ccccc1NC(=S)N/N=C/c1ccc(O)cc1O | inconclusive: 89.1 µM [inhibitor, partial curve, poor fit] | – |
| COc1ccc(-c2cc(NC=O)c3ncc(-c4ccc(OC)c(OC)c4)n3c2)cc1OC | inactive | – |
| COc1ncnc2c1ncn2CCCN1CCN(Cc2cccc3ccccc23)CC1 | inconclusive: 35.5 µM [inhibitor, single point] | – |
| CCOc1ccc(NC(=O)N2CCN(C(=O)c3ccco3)CC2)cc1 | inconclusive: 56.2 µM [inhibitor, partial curve, poor fit] | – |
| CC(=O)c1ccc(N(CC(=O)NC2CCS(=O)(=O)C2)S(=O)(=O)c2ccc(Cl)cc2)cc1 (stereo unspecified) | inconclusive: 89.1 µM [inhibitor, partial curve, poor fit] | – |

3 of the compounds above, with tabs.
SMILES	Potency	activity change, negative = inhibition
O=C1CCN(S(=O)(=O)c2ccccc2)CCCN(S(=O)(=O)c2ccc3c(c2)CCC3)CCN1	inconclusive: 20 µM [inhibitor, full curve]	–
CCC(CC)C(=O)N1CCC2(CC1)C(=O)N(CC)c1ccccc12	inactive	–
CC(=O)c1ccc(N(CC(=O)NC2CCS(=O)(=O)C2)S(=O)(=O)c2ccc(Cl)cc2)cc1 (stereo unspecified)	inconclusive: 89.1 µM [inhibitor, partial curve, poor fit]	–

(more compounds)

| SMILES | Potency | activity change, negative = inhibition |
| --- | --- | --- |
| CC1CCCCN1CCNC(=O)c1ccc2c(c1)N(Cc1cccc(Cl)c1)C(=O)c1ccccc1S2(=O)=O (stereo unspecified) | inconclusive: 79.4 µM [inhibitor, single point] | – |
| CNC(=S)N/N=C1/CCCCC1C (stereo unspecified) | inconclusive: 0.447 µM [inhibitor, full curve, poor fit] | – |
| COc1cc(-c2ccc(N3C(c4ccsc4)=Cc4ccccc4C3CC(C)=O)cc2)cc(OC)c1OC (stereo unspecified) | inconclusive: 70.8 µM [inhibitor, partial curve, poor fit] | – |
| COc1ccccc1C(=O)NCCn1ccn2nc(-c3ccc(C)c(C)c3)cc2c1=O | inconclusive: 79.4 µM [inhibitor, single point] | – |
| CSCC[C@H](NC(=O)Cc1ccc(N2CCCC2=O)cc1)c1nc2ccccc2[nH]1 | inactive | – |
| CCO/C(=C/c1sc2ccc(OC)cc2[n+]1CCCS(=O)(=O)[O-])CC | inactive | – |
| CCOc1ccc2[nH]c(=O)c(CN(CCCO)C(C)=O)cc2c1 | inactive | – |
| Cc1cc(=O)c(C(=O)Nc2cccc(C(=O)NC3CC3)c2)nn1-c1ccccc1 | inconclusive: 141 µM [inhibitor, partial curve, poor fit] | – |
| CC(=O)Nc1ccc(S(=O)(=O)Nc2nc3ccccc3nc2Nc2ccc(N(C)C)cc2)cc1 | inactive | – |
| CCOC(=O)c1[nH]c2ccc(OC)cc2c1NC(=O)CN1CCc2ccccc2C1 | inactive | – |
| CCOC(=O)c1ccc(CNCc2ccccc2)cc1 | inconclusive: 141 µM [inhibitor, partial curve, poor fit] | – |
| N#Cc1ccc(COC(=O)C2CC(=O)N(CCc3ccccc3)C2)cc1 (stereo unspecified) | inactive | – |
| CSc1cccc(NC(=O)Nc2ccc(Cl)cc2)c1 | inconclusive: 1.12 µM [inhibitor, full curve, poor fit] | – |
| Cc1ccc2c(c1)Oc1ccccc1C=C2C(=O)O | inconclusive: 56.2 µM [inhibitor, partial curve, poor fit] | – |
| Nc1nc(N2CCOCC2)nc2c1C(C(=O)Nc1ccccc1)CC(=O)N2 (stereo unspecified) | inactive | – |
| Cc1c(Cl)cnc(NC(=O)COC(=O)c2ccncc2)c1Cl | inconclusive: 44.7 µM [inhibitor, partial curve, poor fit] | – |
| COc1ccc(N=c2cc(-c3ccc(O)cc3)oc3ccccc23)cc1 | inconclusive: 158 µM [inhibitor, single point] | – |
| COc1ccccc1NC(=O)CSC1=Nc2ccccc2C2=NC(CC(=O)NCc3ccccc3)C(=O)N12 (stereo unspecified) | inconclusive: 2 µM [inhibitor, full curve, poor fit] | – |
| CN(C)CCCN(C(=O)COc1ccc(Cl)cc1)c1nc2ccc(F)cc2s1 | inconclusive: 39.8 µM [inhibitor, partial curve, poor fit] | – |
| O=C(O)c1ccc(/C=N/Nc2cccc(C(F)(F)F)c2)cc1 | active: 44.7 µM | – |
| CC/C(=N/N=C(/CC)c1ccc(O)cc1)c1ccc(O)cc1 | inconclusive: 44.7 µM [inhibitor, partial curve, poor fit] | – |
| C[C@H](O)[C@@H]1CN2CCc3c([nH]c4ccccc34)[C@@H]2C[C@@H]1N(C)C(=S)NCCc1ccccc1 | inconclusive: 112 µM [inhibitor, single point] | – |

| SMILES | Potency | activity change, negative = inhibition |
| --- | --- | --- |
| CC(C)CC1Nc2ncnc(N3CCN(c4ccccc4)CC3)c2N(Cc2ccc(Cl)cc2)C1=O (stereo unspecified) | inconclusive: 44.7 µM [inhibitor, partial curve, poor fit] | – |
| COc1cccc(/C=N/Nc2ccc(S(=O)(=O)O)cc2)c1O | inactive | – |
| CCC(CC)NC(=O)CN(C)CC(=O)Nc1ccc(Cl)c(C(F)(F)F)c1 | inconclusive: 0.708 µM [inhibitor, full curve] | – |
| CC(NC(=O)c1ccccc1I)C1CC2CCC1C2 (stereo unspecified) | inactive | – |
| COC(=O)c1c(NS(=O)(=O)c2ccc3ccccc3c2)sc2c1CCCC2 | inconclusive: 50.1 µM [inhibitor, partial curve, poor fit] | – |
| O=C(O)CCNS(=O)(=O)c1ccc(F)cc1 | inconclusive: 50.1 µM [inhibitor, partial curve, poor fit] | – |
| COc1ccc2cc(C(=O)NCCNC(C)=O)c(C)nc2c1 | inconclusive: 89.1 µM [inhibitor, partial curve, poor fit] | – |
| O=C(NCCN1CCN(Cc2ccccc2)CC1)Nc1cc(Cl)cc(Cl)c1 | inconclusive: 79.4 µM [inhibitor, partial curve, poor fit] | – |
| CC(C)NC(=O)C1(C)CN(S(C)(=O)=O)CC(=O)N1Cc1cccc(F)c1 (stereo unspecified) | inactive | – |
| O=C(CSc1ccc(-c2ccccn2)nn1)Nc1ccc(F)cc1F | inactive | – |
| Nc1[nH][nH]c(=O)c1N=Nc1cccc(Cl)c1 | inconclusive: 100 µM [inhibitor, single point] | – |
| O=[N+]([O-])c1ncc(Br)cc1Nc1ccccc1 | inconclusive: 89.1 µM [inhibitor, single point] | – |
| O=S1(=O)CC(N2CCN(Cc3ccccc3F)CC2)CN1Cc1cn(Cc2ccc(F)cc2)nn1 (stereo unspecified) | inactive | – |
| O=c1c(-c2ccc(F)cc2)nc2cnc(N3CCNCC3)nc2n1Cc1cccs1 | inconclusive: 39.8 µM [inhibitor, partial curve, poor fit] | – |
| COc1cccc(-c2cc(C(=O)N[C@@H](C)c3ncccc3C)[nH]n2)c1 | inactive | – |
| C=CC(COCc1ccccc1)N([C@@H](Cc1ccccc1)C(=O)OC)S(=O)(=O)c1ccccc1Br (stereo partly specified) | inactive | – |
| CCCN(CCC)CC(O)Cn1cc(/C=C/C(=O)c2ccc(Br)cc2)c2ccccc21 (stereo unspecified) | inconclusive: 50.1 µM [inhibitor, partial curve] | – |
| COc1ccc(C2CC(=O)c3c(C)nc(N4CCN(Cc5ccccc5)CC4)nc3C2)cc1OC (stereo unspecified) | inactive | – |
| COc1cccc(Nc2c(-c3cccc(O)c3)nc3cccc(C)n23)c1 | inconclusive: 12.6 µM [inhibitor, partial curve, poor fit] | – |
| CCCCOc1ccc(NC(=O)CC)c2cccnc12 | inconclusive: 14.1 µM [inhibitor, full curve, poor fit] | – |
| Cc1ccc2nc(NC(=O)CSc3ncc(C(=O)Nc4ccc(F)cc4)c(=O)n3C)sc2c1 | inconclusive: 50.1 µM [inhibitor, partial curve, poor fit] | – |
| COc1ccc(Cc2c(-c3ccc(F)cc3)nc3ccc(C)cn23)c(C)c1 | inconclusive: 100 µM [inhibitor, single point] | – |
